Among the data in paper PMC9666630 are binding values, retold here.

This experiment addresses T1, ASF1A-3xFlag-BLRP (pASF1A::ASF1A-3xFlag-BLRP complementing line) (Arabidopsis thaliana), Q9C9M6.
T1 chain: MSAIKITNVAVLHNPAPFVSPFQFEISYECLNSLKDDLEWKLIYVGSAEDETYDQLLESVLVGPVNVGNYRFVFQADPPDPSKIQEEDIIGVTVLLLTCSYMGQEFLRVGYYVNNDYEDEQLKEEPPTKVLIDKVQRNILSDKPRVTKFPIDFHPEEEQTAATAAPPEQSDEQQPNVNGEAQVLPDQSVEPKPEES
The experiment in a line: affinity purification with mass spectrometry; IP-MS from about 20 g young inflorescence tissue of asf1a + ASF1A-3xFlag and asf1b + ASF1B-9Myc lines, Col-0 as negative control; anti-FLAG M2 magnetic beads or streptavidin beads; interactors: fold change >2 and FDR < 0.01. The following applies: remark: other sources report otherwise.

Results are given in words; binding and its absence hold for the method and conditions named. Binding seen in cells or lysates may run through a third protein. A yes stands for co-enrichment or nearness to the bait. Other partners may have been found. A no says only that the protein was not detected with the bait. Sequences can lack the tags named with a protein.

B1: FASCIATA1 (FAS1), endogenous, Q9SXY0 1-815 (protein)
chain: MDEVSTVNENENRKTMIEPKKLNKRKREPTAIENLTSEEKESQISSLNLEMKGLFDYFREVMDKSKRTDLFSGFSECSSLNSMVALLMEEMSLPLSKLVDEIYLKLKEKTESVTMVAVKSAVVSVGQRVSYGVLNVDADVLEDDSESCLWCWETRDLKIMPSSVRGVLKLRRTCRKKIHERITAVSAMLAALQREETEKLWRSDLSKAAEKLGKILSEVDIRSFMDNMMQKNSSEMAEKDSKREEKLLLKQLEKNRCEAEKEKKRMERQVLKEKLQQEKEQKLLQKAIVDENNKEKEETESRKRIKKQQDESEKEQKRREKEQAELKKQLQVQKQASIMERFLKKSKDSSLTQPKLPSSEVTAQELSCTKHENEIGKVVQAIDNAFSTTCEATVDDIRREHFASWRQLGHLLSSSKKHWGMRRQPKSELFPKLKLSTNSGVTSDGEPNMEKQGDGCEENNFDGRQCKPSSSNRKKSRRVKQLLQFDKSCRPGFYGIWPSQSQVVKPRRPLQKDPELDYEVDSDEEWEEEEAGESLSDCEKDEDESLEEGCSKADDEDDSEDDFMVPDGYLSEDEGVQVDRMDIDPSEQDANTTSSKQDQESPEFCALLQQQKHLQNLTDHALKKTQPLIICNLTHEKVSLLAAKDLEGTQKVEQICLRALMVRQFPWSSLIEISINDIQDEDQEASKFSCSQSTPPSNSKAKIIPDSDLLTVVSTIQSCSQGINRVVETLQQKFPDVPKTKLRQKVREISDFEDSRWQVKKEVLTKLGLSPSPDKGGKRLPKTISTFFSKRCLPPSTKPQPAVEDAAERLENENA
Consider B1, for which the binding entry is on record as “no binding”.
